According to publication PMC10323252:
No constants are given. Whether binding was seen depends on the method and setting. In cells and extracts the contact can be indirect. A yes stands for co-enrichment or nearness to the bait. Other partners may have been found. For some assays here: A no says only that the protein was not detected with the bait. For some assays here: Where a sequence is shown, tags or fusion partners need not be part of it.

Sequences of proteins named here, by UniProt entry; tags and fusion partners are left off.
UniProt P62491: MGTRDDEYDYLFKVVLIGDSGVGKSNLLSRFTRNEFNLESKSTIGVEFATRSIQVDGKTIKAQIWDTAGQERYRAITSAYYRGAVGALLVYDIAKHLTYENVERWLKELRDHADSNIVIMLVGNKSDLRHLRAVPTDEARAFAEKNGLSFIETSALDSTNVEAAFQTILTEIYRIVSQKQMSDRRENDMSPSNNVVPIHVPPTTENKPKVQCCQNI
UniProt P20338: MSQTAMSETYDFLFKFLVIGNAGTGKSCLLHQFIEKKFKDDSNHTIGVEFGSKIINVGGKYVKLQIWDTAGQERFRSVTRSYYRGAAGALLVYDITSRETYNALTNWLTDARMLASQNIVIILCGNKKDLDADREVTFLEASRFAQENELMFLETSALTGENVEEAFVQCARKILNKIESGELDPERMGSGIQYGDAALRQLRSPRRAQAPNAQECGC

B1: CHM-like Rab escort protein (protein, UniProt P26374 1-656)
chain: MADNLPTEFDVVIIGTGLPESILAAACSRSGQRVLHIDSRSYYGGNWASFSFSGLLSWLKEYQQNNDIGEESTVVWQDLIHETEEAITLRKKDETIQHTEAFCYASQDMEDNVEEIGALQKNPSLGVSNTFTEVLDSALPEESQLSYFNSDEMPAKHTQKSDTEISLEVTDVEESVEKEKYCGDKTCMHTVSDKDGDKDESKSTVEDKADEPIRNRITYSQIVKEGRRFNIDLVSKLLYSQGLLIDLLIKSDVSRYVEFKNVTRILAFREGKVEQVPCSRADVFNSKELTMVEKRMLMKFLTFCLEYEQHPDEYQAFRQCSFSEYLKTKKLTPNLQHFVLHSIAMTSESSCTTIDGLNATKNFLQCLGRFGNTPFLFPLYGQGEIPQGFCRMCAVFGGIYCLRHKVQCFVVDKESGRCKAIIDHFGQRINAKYFIVEDSYLSEETCSNVQYKQISRAVLITDQSILKTDLDQQTSILIVPPAEPGACAVRVTELCSSTMTCMKDTYLVHLTCSSSKTAREDLESVVKKLFTPYTETEINEEELTKPRLLWALYFNMRDSSGISRSSYNGLPSNVYVCSGPDCGLGNEHAVKQAETLFQEIFPTEEFCPPPPNPEDIIFDGDDKQPEAPGTNNVVMAKLESSEESKNLESPEKHLQN
B2: YKT6 (protein, UniProt O15498 1-198)
chain: MKLYSLSVLYKGEAKVVLLKAAYDVSSFSFFQRSSVQEFMTFTSQLIVERSSKGTRASVKEQDYLCHVYVRNDSLAGVVIADNEYPSRVAFTLLEKVLDEFSKQVDRIDWPVGSPATIHYPALDGHLSRYQNPREADPMTKVQAELDETKIILHNTMESLLERGEKLDDLVSKSEVLGTQSKAFYKTARKQNSCCAIM
B3: CRACR2A (protein, UniProt Q9BSW2 1-731)
chain: MAAPDGRVVSRPQRLGQGSGQGPKGSGACLHPLDSLEQKETQEQTSGQLVMLRKAQEFFQTCDAEGKGFIARKDMQRLHKELPLSLEELEDVFDALDADGNGYLTPQEFTTGFSHFFFSQNNPSQEDAGEQVAQRHEEKVYLSRGDEDLGDMGEDEEAQFRMLMDRLGAQKVLEDESDVKQLWLQLKKEEPHLLSNFEDFLTRIISQLQEAHEEKNELECALKRKIAAYDEEIQHLYEEMEQQIKSEKEQFLLKDTERFQARSQELEQKLLCKEQELEQLTQKQKRLEGQCTALHHDKHETKAENTKLKLTNQELARELERTSWELQDAQQQLESLQQEACKLHQEKEMEVYRVTESLQREKAGLLKQLDFLRERNKHLRDERDICFQKNKAAKANTAASRASWKKRSGSVIGKYVDSRGILRSQSEEEEEVFGIPRRSSLGLSGYPLTEEEPGTGEPGPGGPYPRPLRRIISVEEDPLPQLLDGGFEQPLSKCSEEEEVSDQGVQGQIPEAPPLKLTPTSPRGQPVGKEALCKEESSPSAPDRLFKIVFVGNSAVGKTSFLRRFCEDRFSPGMAATVGIDYRVKTLNVDNSQVALQLWDTAGQERYRCITQQFFRKADGVIVMYDLTDKQSFLSVRRWLSSVEEAVGDRVPVLLLGNKLDNEKEREVPRGLGEQLATENNLIFYECSAYSGHNTKESLLHLARFLKEQEDTVREDTIQVGHPAKKKSCCG
B4: Rab11FIP5 (protein, UniProt Q9BXF6 1-653)
chain: MALVRGAEPAAGPSRWLPTHVQVTVLRARGLRGKSSGAGSTSDAYTVIQVGREKYSTSVVEKTHGCPEWREECSFELPPGALDGLLRAQEADAGPAPWAASSAAACELVLTTMHRSLIGVDKFLGQATVALDEVFGAGRAQHTQWYKLHSKPGKKEKERGEIEVTIQFTRNNLSASMFDLSMKDKPRSPFSKIRDKMKGKKKYDLESASAILPSSAIEDPDLGSLGKMGKAKGFFLRNKLRKSSLTQSNTSLGSDSTLSSASGSLAYQGPGAELLTRSPSRSSWLSTEGGRDSAQSPKLFTHKRTYSDEANQMRVAPPRALLDLQGHLDAASRSSLCVNGSHIYNEEPQGPVRHRSSISGSLPSSGSLQAVSSRFSEEGPRSTDDTWPRGSRSNSSSEAVLGQEELSAQAKVLAPGASHPGEEEGARLPEGKPVQVATPIVASSEAVAEKEGARKEERKPRMGLFHHHHQGLSRSELGRRSSLGEKGGPILGASPHHSSSGEEKAKSSWFGLREAKDPTQKPSPHPVKPLSAAPVEGSPDRKQSRSSLSIALSSGLEKLKTVTSGSIQPVTQAPQAGQMVDTKRLKDSAVLDQSAKYYHLTHDELISLLLQRERELSQRDEHVQELESYIDRLLVRIMETSPTLLQIPPGPPK
B5: TBC1D8 (protein, UniProt O95759 1-1140)
chain: MWLKPEEVLLKNALKLWVTQKSSCYFILQRRRGHGEGGGRLTGRLVGALDAVLDSNARVAPFRILLQVPGSQVYSPIACGATLEEINQHWDWLEQNLLHTLSVFDNKDDIASFVKGKVKALIAEETSSRLAEQEEEPEKFREALVKFEARFNFPEAEKLVTYYSCCCWKGRVPRQGWLYLSINHLCFYSFFLGKELKLVVPWVDIQKLERTSNVFLTDTIRITTQNKERDFSMFLNLDEVFKVMEQLADVTLRRLLDNEVFDLDPDLQEPSQITKRDLEARAQNEFFRAFFRLPRKEKLHAVVDCSLWTPFSRCHTTGRMFASDSYICFASREDGCCKIILPLREVVSIEKMEDTSLLPHPIIVSIRSKVAFQFIELRDRDSLVEALLARLKQVHANHPVHYDTSADDDMASLVFHSTSMCSDHRFGDLEMMSSQNSEESEKEKSPLMHPDALVTAFQQSGSQSPDSRMSREQIKISLWNDHFVEYGRTVCMFRTEKIRKLVAMGIPESLRGRLWLLFSDAVTDLASHPGYYGNLVEESLGKCCLVTEEIERDLHRSLPEHPAFQNETGIAALRRVLTAYAHRNPKIGYCQSMNILTSVLLLYTKEEEAFWLLVAVCERMLPDYFNHRVIGAQVDQSVFEELIKGHLPELAEHMNDLSALASVSLSWFLTLFLSIMPLESAVNVVDCFFYDGIKAIFQLGLAVLEANAEDLCSSKDDGQALMILSRFLDHIKNEDSPGPPVGSHHAFFSDDQEPYPVTDISDLIRDSYEKFGDQSVEQIEHLRYKHRIRVLQGHEDTTKQNVLRVVIPEVSILPEDLEELYDLFKREHMMSCYWEQPRPMASRHDPSRPYAEQYRIDARQFAHLFQLVSPWTCGAHTEILAERTFRLLDDNMDQLIEFKAFVSCLDIMYNGEMNEKIKLLYRLHIPPALTENDRDSQSPLRNPLLSTSRPLVFGKPNGDAVDYQKQLKQMIKDLAKEKDKTEKELPKMSQREFIQFCKTLYSMFHEDPEENDLYQAIATVTTLLLQIGEVGQRGSSSGSCSQECGEELRASAPSPEDSVFADTGKTPQDSQAFPEAAERDWTVSLEHILASLLTEQSLVNFFEKPLDMKSKLENAKINQYNLKTFEMSHQSQSELKLSNL
B6: SNX29 (protein, UniProt Q8TEQ0 1-813)
chain: MSGSQNNDKRQFLLERLLDAVKQCQIRFGGRKEIASDSDSRVTCLCAQFEAVLQHGLKRSRGLALTAAAIKQAAGFASKTETEPVFWYYVKEVLNKHELQRFYSLRHIASDVGRGRAWLRCALNEHSLERYLHMLLADRCRLSTFYEDWSFVMDEERSSMLPTMAAGLNSILFAINIDNKDLNGQSKFAPTVSDLLKESTQNVTSLLKESTQGVSSLFREITASSAVSILIKPEQETDPLPVVSRNVSADAKCKKERKKKKKVTNIISFDDEEDEQNSGDVFKKTPGAGESSEDNSDRSSVNIMSAFESPFGPNSNGSQSSNSWKIDSLSLNGEFGYQKLDVKSIDDEDVDENEDDVYGNSSGRKHRGHSESPEKPLEGNTCLSQMHSWAPLKVLHNDSDILFPVSGVGSYSPADAPLGSLENGTGPEDHVLPDPGLRYSVEASSPGHGSPLSSLLPSASVPESMTISELRQATVAMMNRKDELEEENRSLRNLLDGEMEHSAALRQEVDTLKRKVAEQEERQGMKVQALARENEVLKVQLKKYVGAVQMLKREGQTAEVPNLWSVDGEVTVAEQKPGEIAEELASSYERKLIEVAEMHGELIEFNERLHRALVAKEALVSQMRQELIDLRGPVPGDLSQTSEDQSLSDFEISNRALINVWIPSVFLRGKAANAFHVYQVYIRIKDDEWNIYRRYTEFRSLHHKLQNKYPQVRAYNFPPKKAIGNKDAKFVEERRKQLQNYLRSVMNKVIQMVPEFAASPKKETLIQLMPFFVDITPPGEPVNSRPKAASRFPKLSRGQPRETRNVEPQSGDL

Target: mycBirA*–Rab11a (UniProt P62491)
Experiment: proximity labelling; BioID: A2780 cells stably expressing mycBirA*-Rab baits (mycBirA* alone as control), 1 uM biotin for 16 h; lysis in 0.4% SDS, 500 mM NaCl buffer; streptavidin microspheres; LC-MS/MS with label-free quantification, four replicates; high-confidence list by SAINTexpress (BFDR<=0.05), longlist by >2-fold enrichment; biotin-modified peptides also scored

Row | Binder | binding
1 | B1 | binds
2 | B2 | binds
3 | B3 | binds
4 | B4 | binds

Target: mycBirA*–Rab4a (UniProt P20338)
Experiment: as above

Row | Binder | binding
5 | B1 | binds
6 | B2 | binds
7 | B3 | no binding
8 | B4 | no binding
9 | B5 | binds
10 | B6 | binds

Target: T1, mycBirA*–Rab25 (UniProt P57735)
T1 sequence: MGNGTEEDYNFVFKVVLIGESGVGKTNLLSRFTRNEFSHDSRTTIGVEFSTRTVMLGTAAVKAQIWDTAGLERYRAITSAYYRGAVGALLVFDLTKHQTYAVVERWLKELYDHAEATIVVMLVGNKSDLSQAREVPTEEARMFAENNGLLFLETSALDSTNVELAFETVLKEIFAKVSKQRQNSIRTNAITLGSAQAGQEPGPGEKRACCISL
Experiment: as above

Row | Binder | binding
11 | B1 | binds
12 | B2 | binds
13 | B3 | binds
14 | B4 | binds
